From the supplement of paper PMC12823440, “Inhibitors supercharge kinase turnover through native proteolytic circuits” (Nature, 2025) come the findings set out here.

By UniProt entry, the sequences of proteins in these tests, tags left out. Where a name states a change or a piece, a line headed by the entry shows the natural chain unless it says otherwise.
UniProt Q9UQM7, whole entry: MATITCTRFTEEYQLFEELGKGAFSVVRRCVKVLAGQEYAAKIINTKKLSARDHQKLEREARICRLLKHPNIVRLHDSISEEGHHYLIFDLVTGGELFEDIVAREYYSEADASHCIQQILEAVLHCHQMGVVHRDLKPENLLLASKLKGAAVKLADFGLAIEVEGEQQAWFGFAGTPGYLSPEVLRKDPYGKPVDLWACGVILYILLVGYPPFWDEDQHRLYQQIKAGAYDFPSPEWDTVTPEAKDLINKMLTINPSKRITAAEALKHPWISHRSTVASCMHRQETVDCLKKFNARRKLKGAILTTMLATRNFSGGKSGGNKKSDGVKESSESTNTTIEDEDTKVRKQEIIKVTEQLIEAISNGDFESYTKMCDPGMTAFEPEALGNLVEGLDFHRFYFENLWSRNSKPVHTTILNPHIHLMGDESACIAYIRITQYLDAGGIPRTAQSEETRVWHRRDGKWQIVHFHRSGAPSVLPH
UniProt Q13555: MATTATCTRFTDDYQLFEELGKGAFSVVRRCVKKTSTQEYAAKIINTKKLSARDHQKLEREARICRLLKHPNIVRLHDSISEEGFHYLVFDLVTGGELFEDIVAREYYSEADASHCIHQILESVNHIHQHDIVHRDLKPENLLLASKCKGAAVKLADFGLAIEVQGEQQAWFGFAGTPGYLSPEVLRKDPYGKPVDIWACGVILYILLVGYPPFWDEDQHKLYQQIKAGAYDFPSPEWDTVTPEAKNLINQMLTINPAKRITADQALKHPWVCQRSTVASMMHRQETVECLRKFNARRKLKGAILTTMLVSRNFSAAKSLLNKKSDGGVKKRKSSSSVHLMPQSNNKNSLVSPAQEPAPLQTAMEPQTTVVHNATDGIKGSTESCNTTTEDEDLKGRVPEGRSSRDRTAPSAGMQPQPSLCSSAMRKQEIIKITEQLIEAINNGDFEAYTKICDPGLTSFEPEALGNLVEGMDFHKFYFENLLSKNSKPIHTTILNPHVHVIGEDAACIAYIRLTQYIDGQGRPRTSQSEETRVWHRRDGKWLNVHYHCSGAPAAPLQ
UniProt Q15131: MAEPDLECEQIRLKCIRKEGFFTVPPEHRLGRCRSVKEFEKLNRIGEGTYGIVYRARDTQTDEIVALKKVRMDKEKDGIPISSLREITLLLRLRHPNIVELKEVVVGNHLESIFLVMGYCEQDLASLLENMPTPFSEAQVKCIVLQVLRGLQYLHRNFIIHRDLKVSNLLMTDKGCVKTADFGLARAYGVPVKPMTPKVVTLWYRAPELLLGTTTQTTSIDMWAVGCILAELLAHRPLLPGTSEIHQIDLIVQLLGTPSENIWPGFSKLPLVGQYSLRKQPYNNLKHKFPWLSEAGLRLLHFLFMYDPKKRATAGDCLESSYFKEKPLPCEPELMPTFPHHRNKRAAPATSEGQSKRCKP
UniProt Q00526: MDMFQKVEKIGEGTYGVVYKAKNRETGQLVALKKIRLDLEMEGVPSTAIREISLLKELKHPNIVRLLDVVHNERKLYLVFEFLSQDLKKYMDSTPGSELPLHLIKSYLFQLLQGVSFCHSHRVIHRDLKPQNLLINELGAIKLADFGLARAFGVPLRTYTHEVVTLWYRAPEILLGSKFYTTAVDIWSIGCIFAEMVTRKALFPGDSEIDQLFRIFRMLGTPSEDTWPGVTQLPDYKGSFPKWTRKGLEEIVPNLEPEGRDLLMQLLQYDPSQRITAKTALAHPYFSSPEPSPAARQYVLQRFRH
UniProt Q00535, whole entry, looked up: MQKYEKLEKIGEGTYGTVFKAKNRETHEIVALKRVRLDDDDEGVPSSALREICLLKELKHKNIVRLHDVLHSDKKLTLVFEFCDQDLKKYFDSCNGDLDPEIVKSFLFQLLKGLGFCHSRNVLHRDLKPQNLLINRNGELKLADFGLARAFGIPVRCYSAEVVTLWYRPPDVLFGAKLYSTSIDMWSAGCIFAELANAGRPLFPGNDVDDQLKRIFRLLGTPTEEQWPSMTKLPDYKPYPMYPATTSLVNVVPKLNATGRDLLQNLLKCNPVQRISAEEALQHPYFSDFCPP
UniProt Q00534, whole entry: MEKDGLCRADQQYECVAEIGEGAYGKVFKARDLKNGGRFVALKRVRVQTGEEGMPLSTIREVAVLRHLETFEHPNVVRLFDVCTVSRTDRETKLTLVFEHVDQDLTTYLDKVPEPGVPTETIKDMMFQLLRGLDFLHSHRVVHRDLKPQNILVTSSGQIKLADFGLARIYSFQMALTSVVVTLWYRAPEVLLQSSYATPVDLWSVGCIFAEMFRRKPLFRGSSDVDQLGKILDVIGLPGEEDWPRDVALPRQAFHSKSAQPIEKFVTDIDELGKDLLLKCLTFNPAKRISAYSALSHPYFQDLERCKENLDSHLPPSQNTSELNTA
UniProt O96017, whole entry: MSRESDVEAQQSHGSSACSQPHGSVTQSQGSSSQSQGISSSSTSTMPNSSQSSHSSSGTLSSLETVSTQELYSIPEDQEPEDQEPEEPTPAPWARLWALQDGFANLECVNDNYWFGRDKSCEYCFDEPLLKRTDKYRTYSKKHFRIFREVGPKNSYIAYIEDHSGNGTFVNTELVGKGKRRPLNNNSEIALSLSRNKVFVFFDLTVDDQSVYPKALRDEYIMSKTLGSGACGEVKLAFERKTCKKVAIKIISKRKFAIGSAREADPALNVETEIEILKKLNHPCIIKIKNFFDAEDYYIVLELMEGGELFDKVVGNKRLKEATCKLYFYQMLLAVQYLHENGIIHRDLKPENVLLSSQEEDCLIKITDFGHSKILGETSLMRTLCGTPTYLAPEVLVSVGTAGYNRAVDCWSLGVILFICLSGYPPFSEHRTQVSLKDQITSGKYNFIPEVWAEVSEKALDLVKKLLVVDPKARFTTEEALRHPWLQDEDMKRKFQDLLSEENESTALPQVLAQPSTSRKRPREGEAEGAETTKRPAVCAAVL
UniProt P07333, whole entry: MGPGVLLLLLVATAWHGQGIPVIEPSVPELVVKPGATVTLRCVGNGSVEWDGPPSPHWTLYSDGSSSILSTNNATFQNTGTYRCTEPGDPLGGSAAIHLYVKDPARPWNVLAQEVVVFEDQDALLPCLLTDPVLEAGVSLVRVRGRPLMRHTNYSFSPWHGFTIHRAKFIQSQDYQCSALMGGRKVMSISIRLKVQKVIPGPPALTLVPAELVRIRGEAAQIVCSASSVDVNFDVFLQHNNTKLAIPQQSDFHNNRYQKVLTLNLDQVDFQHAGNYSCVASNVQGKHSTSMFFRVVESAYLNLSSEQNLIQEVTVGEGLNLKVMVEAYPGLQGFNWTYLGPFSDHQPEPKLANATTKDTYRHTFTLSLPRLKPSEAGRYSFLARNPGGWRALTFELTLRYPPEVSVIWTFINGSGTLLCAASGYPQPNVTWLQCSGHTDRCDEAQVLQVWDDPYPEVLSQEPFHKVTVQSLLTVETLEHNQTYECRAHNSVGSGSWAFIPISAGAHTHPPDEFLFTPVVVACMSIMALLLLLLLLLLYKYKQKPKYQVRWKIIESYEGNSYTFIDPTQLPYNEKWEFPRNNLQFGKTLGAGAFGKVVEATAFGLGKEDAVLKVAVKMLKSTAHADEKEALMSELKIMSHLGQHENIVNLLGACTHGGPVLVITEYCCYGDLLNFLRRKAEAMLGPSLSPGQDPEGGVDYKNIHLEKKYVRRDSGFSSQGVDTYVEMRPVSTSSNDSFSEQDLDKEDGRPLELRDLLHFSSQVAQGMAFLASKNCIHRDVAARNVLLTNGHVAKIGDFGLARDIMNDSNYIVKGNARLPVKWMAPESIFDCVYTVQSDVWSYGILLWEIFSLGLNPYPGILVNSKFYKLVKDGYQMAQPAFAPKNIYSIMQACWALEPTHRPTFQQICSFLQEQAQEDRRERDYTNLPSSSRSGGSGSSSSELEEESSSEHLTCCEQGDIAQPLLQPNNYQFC
UniProt P41240: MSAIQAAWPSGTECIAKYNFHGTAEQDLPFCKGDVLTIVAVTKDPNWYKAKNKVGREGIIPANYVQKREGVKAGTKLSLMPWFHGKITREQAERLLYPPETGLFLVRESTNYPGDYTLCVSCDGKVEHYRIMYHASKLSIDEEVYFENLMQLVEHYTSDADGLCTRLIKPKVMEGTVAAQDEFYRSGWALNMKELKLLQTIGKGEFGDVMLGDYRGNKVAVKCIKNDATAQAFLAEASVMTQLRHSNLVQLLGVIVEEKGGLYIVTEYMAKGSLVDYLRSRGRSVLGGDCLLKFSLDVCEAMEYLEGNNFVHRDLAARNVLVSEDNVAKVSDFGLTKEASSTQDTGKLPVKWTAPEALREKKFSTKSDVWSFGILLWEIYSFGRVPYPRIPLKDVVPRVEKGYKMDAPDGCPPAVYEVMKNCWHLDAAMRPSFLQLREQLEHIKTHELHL
UniProt P48729: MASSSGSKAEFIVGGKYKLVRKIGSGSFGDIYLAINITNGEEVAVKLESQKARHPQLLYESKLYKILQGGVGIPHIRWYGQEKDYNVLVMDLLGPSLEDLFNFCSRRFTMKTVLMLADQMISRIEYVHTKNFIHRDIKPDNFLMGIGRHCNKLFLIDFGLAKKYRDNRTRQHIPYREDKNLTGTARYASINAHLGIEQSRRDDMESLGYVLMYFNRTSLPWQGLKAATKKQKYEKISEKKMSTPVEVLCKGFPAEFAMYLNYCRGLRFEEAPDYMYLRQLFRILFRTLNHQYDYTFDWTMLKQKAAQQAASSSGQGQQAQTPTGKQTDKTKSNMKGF
UniProt P48730: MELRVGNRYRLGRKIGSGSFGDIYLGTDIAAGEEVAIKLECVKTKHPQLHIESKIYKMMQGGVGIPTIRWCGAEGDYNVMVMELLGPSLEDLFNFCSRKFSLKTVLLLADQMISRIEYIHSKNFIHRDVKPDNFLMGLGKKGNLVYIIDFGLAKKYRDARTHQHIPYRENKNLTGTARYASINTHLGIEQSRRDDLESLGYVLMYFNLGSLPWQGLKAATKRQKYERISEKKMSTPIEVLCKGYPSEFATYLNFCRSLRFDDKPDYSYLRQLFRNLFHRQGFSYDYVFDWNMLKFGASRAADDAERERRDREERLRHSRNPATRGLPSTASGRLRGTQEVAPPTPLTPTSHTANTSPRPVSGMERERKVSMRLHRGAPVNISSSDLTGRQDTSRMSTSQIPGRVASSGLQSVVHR
UniProt Q08345: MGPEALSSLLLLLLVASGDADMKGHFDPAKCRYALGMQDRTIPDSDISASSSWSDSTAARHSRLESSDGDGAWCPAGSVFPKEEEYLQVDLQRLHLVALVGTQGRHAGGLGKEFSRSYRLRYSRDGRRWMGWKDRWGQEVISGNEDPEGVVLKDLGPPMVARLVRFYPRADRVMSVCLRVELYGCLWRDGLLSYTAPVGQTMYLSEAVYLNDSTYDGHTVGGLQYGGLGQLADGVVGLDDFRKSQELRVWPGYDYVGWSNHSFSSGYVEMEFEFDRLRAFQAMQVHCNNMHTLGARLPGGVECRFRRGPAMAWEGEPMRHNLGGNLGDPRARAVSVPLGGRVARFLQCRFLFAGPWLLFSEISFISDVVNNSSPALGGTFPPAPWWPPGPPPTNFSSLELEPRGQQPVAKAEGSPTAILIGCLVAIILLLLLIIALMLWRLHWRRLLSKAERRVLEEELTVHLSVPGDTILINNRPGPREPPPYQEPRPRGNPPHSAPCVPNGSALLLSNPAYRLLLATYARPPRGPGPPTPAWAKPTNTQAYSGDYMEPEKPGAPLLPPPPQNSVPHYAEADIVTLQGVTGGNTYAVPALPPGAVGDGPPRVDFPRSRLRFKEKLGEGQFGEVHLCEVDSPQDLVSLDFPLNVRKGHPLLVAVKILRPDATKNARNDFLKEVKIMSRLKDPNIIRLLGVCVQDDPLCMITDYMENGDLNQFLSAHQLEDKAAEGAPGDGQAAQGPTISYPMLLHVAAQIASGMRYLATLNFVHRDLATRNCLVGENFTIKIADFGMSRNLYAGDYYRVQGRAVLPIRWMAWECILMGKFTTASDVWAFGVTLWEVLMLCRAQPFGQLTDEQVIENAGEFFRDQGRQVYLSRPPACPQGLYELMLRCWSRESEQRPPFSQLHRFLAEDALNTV
UniProt Q9Y463, whole entry, looked up: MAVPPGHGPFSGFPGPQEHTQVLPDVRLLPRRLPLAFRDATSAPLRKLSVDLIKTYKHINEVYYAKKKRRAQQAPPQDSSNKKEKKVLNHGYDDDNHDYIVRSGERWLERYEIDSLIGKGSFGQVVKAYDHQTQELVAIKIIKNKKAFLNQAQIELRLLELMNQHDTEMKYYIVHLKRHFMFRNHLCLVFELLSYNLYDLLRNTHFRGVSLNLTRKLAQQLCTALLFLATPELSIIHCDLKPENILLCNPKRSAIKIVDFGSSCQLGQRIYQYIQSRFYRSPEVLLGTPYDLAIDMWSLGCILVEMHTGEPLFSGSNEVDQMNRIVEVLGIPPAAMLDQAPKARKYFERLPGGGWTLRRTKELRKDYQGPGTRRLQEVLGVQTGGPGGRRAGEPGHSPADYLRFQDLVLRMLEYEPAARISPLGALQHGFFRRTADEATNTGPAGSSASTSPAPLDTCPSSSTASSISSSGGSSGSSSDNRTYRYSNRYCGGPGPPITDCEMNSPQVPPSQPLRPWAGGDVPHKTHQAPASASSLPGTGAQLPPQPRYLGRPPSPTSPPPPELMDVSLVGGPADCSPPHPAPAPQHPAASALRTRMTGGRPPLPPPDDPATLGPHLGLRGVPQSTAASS

This is one part of the list. The calls rarely recur for the same compound in another form.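 Kinases, fused to nanoluciferase, were expressed in K562 cells; luminescence was measured every 4 h from 2 to 18 h as percent of control (DMSO = 100%, positive control = 0%). A time point is decreased if signal falls significantly (2 sigma). Hits were called by the authors by a rule that is not shown; the count of time points alone does not decide it.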

Among the targets are CAMK2A (UniProt Q9UQM7); CAMK2G (UniProt Q13555); CDK10 (UniProt Q15131); CDK3 (UniProt Q00526); CDK5 (UniProt Q00535); CDK6 (UniProt Q00534); CHEK2 (UniProt O96017); CSF1R (UniProt P07333); CSK (UniProt P41240); CSNK1A1 (UniProt P48729); CSNK1D (UniProt P48730); DDR1 (UniProt Q08345); DYRK1B (UniProt Q9Y463); DYRK2 (UniProt Q92630); EGFR (UniProt P00533); EGFR_G719S (UniProt P00533); EGFR_G719S_T790M (UniProt P00533); EGFR_L718V (UniProt P00533); EGFR_L858R (UniProt P00533); CDK2 (UniProt P24941).

Test in all cases: number of time points (of 5) at which kinase-Nluc abundance scored as decreased, DMSO-normalised (count); higher = more persistent destabilization
What all share (details): K562; 2-18 h

For the compound `COc1ccc2c(c1)/C(=C/c1cnc[nH]1)C(=O)N2` (2.5 µM), the “number of time points” value with CAMK2A, with CAMK2G, with CDK10, with CDK3, in the test with CDK5 and in the test with CDK6 was 0 in each case. The “number of time points” value with CHEK2, with CSF1R, with CSK, with CSNK1A1, in the test with CSNK1D and in the test with DDR1 was 0 each time. For the same compound, the “number of time points” value with DYRK1B, with DYRK2, in the test with EGFR, with EGFR_G719S, with EGFR_G719S_T790M and with EGFR_L718V was 0 each time. Moreover, in the test with EGFR_L858R, the “number of time points” value stood at 0.

With `C[C@H](Nc1ncnc2[nH]cnc12)c1nc2ccc(F)cc2c(=O)n1-c1ccccc1` [Acalisib] (10 µM), the “number of time points” value in the test with CAMK2A, with CAMK2G, with CDK10, with CDK2, with CDK3 and in the test with CDK5 was 0 throughout. Moreover, the “number of time points” value with CDK6, in the test with CHEK2, in the test with CSF1R, with CSK, with CSNK1A1 and in the test with CSNK1D was 0 in each case. For the same compound, the “number of time points” value in the test with DDR1, with DYRK1B, in the test with DYRK2, with EGFR, with EGFR_G719S and with EGFR_G719S_T790M was 0 throughout. Further, the “number of time points” value in the test with EGFR_L718V and in the test with EGFR_L858R was 0 throughout.

Consider `CCOC(=O)c1c(/C(C#N)=C\N)c2ccc(Cl)c(Cl)c2n1C` (10 µM), for which the “number of time points” value with CAMK2A, with CAMK2G, with CDK10, with CDK2, with CDK3 and with CDK5 was 0 throughout. Moreover, the “number of time points” value with CDK6, with CHEK2, with CSF1R, with CSK, with CSNK1A1 and with CSNK1D was 0 in each case. Besides, the “number of time points” value with DDR1, with DYRK1B, with DYRK2, in the test with EGFR, with EGFR_G719S and with EGFR_G719S_T790M was 0 throughout. Further, the “number of time points” value with EGFR_L718V and in the test with EGFR_L858R was 0 throughout.

Take `O=C(/C=C/c1ccccc1)OC[C@H]1O[C@@H](O[C@@H]2OC=C[C@H]3[C@H](O)[C@@H]4O[C@]4(CO)[C@@H]23)[C@H](O)[C@@H](O)[C@@H]1O` [Picroside I] (10 µM): the “number of time points” value with CAMK2A, with CAMK2G, with CDK10, with CDK2, in the test with CDK3 and in the test with CDK5 was 0 in each case. For the same compound, the “number of time points” value with CDK6, with CHEK2, with CSF1R, with CSK, with CSNK1A1 and with CSNK1D was 0 in each case. Besides, the “number of time points” value with DDR1, with DYRK1B, with DYRK2, with EGFR, with EGFR_G719S and with EGFR_G719S_T790M was 0 each time. The “number of time points” value in the test with EGFR_L718V and with EGFR_L858R was 0 throughout.

In the case of `CC(C)(C)c1cc(C=C(C#N)C#N)cc(Br)c1O` (2.5 µM), the “number of time points” value with CAMK2A, in the test with CAMK2G, in the test with CDK10, in the test with CDK2, with CDK3 and with CDK5 was 0 in each case. Moreover, the “number of time points” value in the test with CDK6, with CHEK2, with CSF1R, with CSK, in the test with CSNK1A1 and with CSNK1D was 0 in each case. In addition, the “number of time points” value with DDR1, with DYRK1B, in the test with DYRK2, with EGFR, with EGFR_G719S and in the test with EGFR_G719S_T790M was 0 throughout. For the same compound, the “number of time points” value with EGFR_L718V and with EGFR_L858R was 0 in each case.

`COc1ccc2c(c[n+](C)c3c4cc5c(cc4ccc23)OCO5)c1OC` [Chelerythrine (chloride)] (10 µM): the “number of time points” value with CAMK2A worked out at 0; in the test with CAMK2G it was 5; with CDK10, 0; with CDK2 it was 0; with CDK3 it was 0; with CDK5, 0. The “number of time points” value with CDK6, with CHEK2, with CSF1R, in the test with CSK, with CSNK1A1 and with CSNK1D was 0 each time. Further, the “number of time points” value with DDR1 amounted to 4; in the test with DYRK1B, 0; with DYRK2, 0; with EGFR, 0; with EGFR_G719S, 0; with EGFR_G719S_T790M, 0. Besides, the “number of time points” value with EGFR_L718V and in the test with EGFR_L858R was 0 each time.

As for `O=c1ccc2cc(O[C@@H]3O[C@H](CO)[C@@H](O)[C@H](O)[C@H]3O)c(O)cc2o1` [Esculin] (10 µM), the “number of time points” value with CAMK2A, with CAMK2G, with CDK10, with CDK2, with CDK3 and with CDK5 was 0 in each case. Further, the “number of time points” value with CDK6, in the test with CHEK2, in the test with CSF1R, with CSK, with CSNK1A1 and with CSNK1D was 0 each time. In addition, the “number of time points” value in the test with DDR1, with DYRK1B, with DYRK2, in the test with EGFR, with EGFR_G719S and with EGFR_G719S_T790M was 0 each time. Besides, the “number of time points” value with EGFR_L718V and with EGFR_L858R was 0 throughout.
